# Measurements as given in patent US12590062B2, “PD-1/PD-L1 inhibitors” (Gilead Sciences, Inc., priority 2017, dated 2026).
# Amino acid sequences for entries named in this document (tags omitted). Residues count along the entry.
# UniProt Q9NZQ7, 19-290 limits assumed: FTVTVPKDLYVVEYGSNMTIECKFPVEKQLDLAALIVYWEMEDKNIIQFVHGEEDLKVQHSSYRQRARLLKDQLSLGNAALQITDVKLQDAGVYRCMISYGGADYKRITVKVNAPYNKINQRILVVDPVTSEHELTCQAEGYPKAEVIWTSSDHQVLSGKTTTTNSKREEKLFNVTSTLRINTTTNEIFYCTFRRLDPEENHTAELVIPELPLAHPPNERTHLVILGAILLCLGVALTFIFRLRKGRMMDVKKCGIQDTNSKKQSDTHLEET
# Target: PD-1/PD-L1 interaction (Homo sapiens, UniProt Q9NZQ7)
# Assay: PD-1/PD-L1 NFAT reporter co-culture assay
# Conditions: read-out: EC50 NFAT Luciferase; Jurkat PD-1 NFAT-luciferase cells co-cultured with aAPC-PD-L1 CHO cells, 6 hrs at 37° C.
# Procedure: PD-1/PD-L1 NEAT Reporter Assay:
# Compounds were tested in afunctional co-culture reporter assay in which TCR-mediated NFAT activity is inhibited by the engagement of PD-1 with PD-L1. […] CHO cells expressing surface-bound anti-CD3 antibodies and PD-L1 (artificial antigen presenting cells, aAPC-PD-L1) were first seeded overnight. Jurkat cells overexpressing PD-1 and expressing a luciferase construct under NFAT control are diluted in RPMI assay medium (RPMI 1640 with 2% FBS), mixed with compounds, and immediately seeded on the monolayer of aAPC-PD-L1. The co-culture is then incubated for 6 hrs at 37° C. Luciferase activity is assessed by adding the ONE-Glo reagent and measuring luminescence with a plate reader. EC50 values are calculated from the fit of the dose-response curves to a four-parameter equation (Table 3).
compound,measurement,value
COc1nc(OCc2cccc(-c3cccc(COc4nc(OC)c(CNC5CCCCC5C(=O)O)cc4Cl)c3C)c2C)c(Cl)cc1CNC1CCCCC1C(=O)O (racemic),pEC50,≤ 4.30

# pEC50: −log10 of the molar value. The match of structure and compound is tentative.
